{
  "source": "patent US7538241B2",
  "about": "“Hsp90 family protein inhibitors” (Kyowa Hakko Kogyo Co., Ltd., priority 2003, dated 2009)",
  "note": "Some entries share one result that the patent states for a list of compounds.",
  "data": [
    {"target": "T1, Human N-terminal recombinant Hsp90 protein (region of amino acids 9 to 236) (Homo sapiens, UniProt P07900)", "T1 construct": "region of amino acids 9 to 236; made in house", "test": "Hsp90 protein binding assay (competition with biotinylated Radicicol)", "details": "at concentrations of at most 10 μmol/L", "values": [
      {"smiles": "CCc1c(O)cc(O)c(-c2ccc(F)c(Cl)c2)c1CC1O[C@H](CO)[C@@H](CO)O1", "note": "[Compound 293, 5-{[(4R,5R)-4,5-bis(hydroxymethyl)-1,3-dioxolan-2-yl]methyl}-4-(3-chloro-4-fluorophenyl)-6-ethylbenzene-1,3-diol]", "inhibition of the binding of biotinylated Radicicol to the Hsp90 protein": "at least 30%"},
      {"smiles": "CCc1c(O)cc(O)c(-c2cccc(OCCO)c2)c1CCOCC(O)CO", "note": "(centres unmarked) [Compound 194, 5-[2-(2,3-Dihydroxypropoxy)ethyl]-6-ethyl-4-[3-(2-hydroxyethoxy)phenyl]benzene-1,3-diol]", "inhibition of the binding of biotinylated Radicicol to the Hsp90 protein": "at least 30%"},
      {"smiles": "OC[C@@H]1OC(Cc2c(Cl)c(O)cc(O)c2-c2ccccc2)O[C@H]1CO", "note": "[Compound 285, 5-{[(4S,5S)-4,5-bis(hydroxymethyl)-1,3-dioxolan-2-yl]methyl}-6-chloro-4-phenylbenzene-1,3-diol]", "inhibition of the binding of biotinylated Radicicol to the Hsp90 protein": "at least 30%"},
      {"smiles": "CCc1c(O)cc(O)c(-c2ccccc2)c1CCO", "note": "[Compound 84, 6-Ethyl-5-(2-hydroxyethyl)-4-phenylbenzene-1,3-diol]", "inhibition of the binding of biotinylated Radicicol to the Hsp90 protein": "at least 30%"},
      {"smiles": "OC[C@H]1OC(Cc2c(Cl)c(O)cc(O)c2-c2ccccc2)O[C@@H]1CO", "note": "[Compound 280, 5-{[(4R,5R)-4,5-bis(hydroxymethyl)-1,3-dioxolan-2-yl]methyl}-6-chloro-4-phenylbenzene-1,3-diol]", "inhibition of the binding of biotinylated Radicicol to the Hsp90 protein": "at least 30%"},
      {"smiles": "OC[C@H]1OC(Cc2c(Br)c(O)cc(O)c2-c2ccccc2)O[C@@H]1CO", "note": "[Compound 232, 5-{[(4R,5R)-4,5-bis(hydroxymethyl)-1,3-dioxolan-2-yl]methyl}-6-bromo-4-phenylbenzene-1,3-diol]", "inhibition of the binding of biotinylated Radicicol to the Hsp90 protein": "at least 30%"},
      {"smiles": "CCc1c(O)cc(O)c(-c2ccccc2)c1Cc1ocnc1C(=O)OC", "note": "[Compound 200, Methyl 5-[(2-ethyl-3,5-dihydroxy-6-phenylphenyl)methyl]-1,3-oxazole-4-carboxylate]", "inhibition of the binding of biotinylated Radicicol to the Hsp90 protein": "at least 30%"},
      {"smiles": "CC(=O)Cc1c(Br)c(O)cc(O)c1-c1ccccc1", "note": "[Compound 65, 1-(2-Bromo-3,5-dihydroxy-6-phenylphenyl)propan-2-one]", "inhibition of the binding of biotinylated Radicicol to the Hsp90 protein": "at least 30%"},
      {"smiles": "CC(=O)c1c(O)cc(O)c(-c2ccccc2)c1CCCO", "note": "[Compound 124, 1-[2,4-Dihydroxy-6-(3-hydroxypropyl)-5-phenylphenyl]ethanone]", "inhibition of the binding of biotinylated Radicicol to the Hsp90 protein": "at least 30%"},
      {"smiles": "CCc1c(O)cc(O)c(-c2cccc(O)c2)c1CCOCC1CO1", "note": "(centres unmarked) [Compound 219, 6-Ethyl-4-(3-hydroxyphenyl)-5-[2-(oxiran-2-ylmethoxy)ethyl]benzene-1,3-diol]", "inhibition of the binding of biotinylated Radicicol to the Hsp90 protein": "at least 30%"},
      {"smiles": "CCc1c(O)cc(O)c(-c2ccccc2)c1Cc1n[nH]c(=O)o1", "note": "[Compound 315, 5-[(2-ethyl-3,5-dihydroxy-6-phenylphenyl)methyl]-3H-1,3,4-oxadiazol-2-one]", "inhibition of the binding of biotinylated Radicicol to the Hsp90 protein": "at least 30%"},
      {"smiles": "CCc1c(O)cc(O)c(-c2cccc(C)c2)c1CCOCCOC", "note": "[Compound 149, 6-Ethyl-5-[2-(2-methoxyethoxy)ethyl]-4-(3-methylphenyl)benzene-1,3-diol]", "inhibition of the binding of biotinylated Radicicol to the Hsp90 protein": "at least 30%"},
      {"smiles": "CCc1c(O)cc(O)c(-c2ccccc2)c1CCc1ocnc1CO", "note": "[Compound 210, 6-Ethyl-5-[2-(4-hydroxymethyl-1,3-oxazol-5-yl)ethyl]-4-phenylbenzene-1,3-diol]", "inhibition of the binding of biotinylated Radicicol to the Hsp90 protein": "at least 30%"},
      {"smiles": "CCCc1c(O)cc(O)c(-c2ccccc2)c1CCOC", "note": "[Compound 95, 5-(2-Methoxyethyl)-4-phenyl-6-propylbenzene-1,3-diol]", "inhibition of the binding of biotinylated Radicicol to the Hsp90 protein": "at least 30%"},
      {"smiles": "CCc1c(O)cc(O)c(-c2cccc(C(=O)NC)c2)c1CC1O[C@@H](CO)[C@H](CO)O1", "note": "[Compound 289, 5-{[(4S,5S)-4,5-Bis(hydroxymethyl)-1,3-dioxolan-2-yl]methyl}-6-ethyl-4-[3-(methylcarbamoyl)phenyl]benzene-1,3-diol]", "inhibition of the binding of biotinylated Radicicol to the Hsp90 protein": "at least 30%"},
      {"smiles": "CCc1c(O)cc(O)c(-c2ccccc2)c1CCc1ocnc1C(=O)N(CCO)CCO", "note": "[Compound 224, 5-[2-(2-ethyl-3,5-dihydroxy-6-phenylphenyl)ethyl]-N,N-bis(2-hydroxyethyl)-1,3-oxazole-4-carboxamide]", "inhibition of the binding of biotinylated Radicicol to the Hsp90 protein": "at least 30%"},
      {"smiles": "COCCc1c(C(C)=O)c(O)cc(O)c1-c1cccc(C(=O)OC)c1", "note": "[Compound 119, Methyl 3-[5-acetyl-2,4-dihydroxy-6-(2-methoxyethyl)phenyl]benzoate]", "inhibition of the binding of biotinylated Radicicol to the Hsp90 protein": "at least 30%"},
      {"smiles": "CCc1c(O)cc(O)c(-c2ccccc2)c1CCOCCO", "note": "[Compound 161, 6-Ethyl-5-[2-(2-hydroxyethoxy)ethyl]-4-phenylbenzene-1,3-diol]", "inhibition of the binding of biotinylated Radicicol to the Hsp90 protein": "at least 30%"},
      {"smiles": "CCc1c(O)cc(O)c(-c2cccc(C(=O)N(C)C)c2)c1CC1O[C@H](CO)[C@@H](CO)O1", "note": "[Compound 292, 5-{[(4R,5R)-4,5-bis(hydroxymethyl)-1,3-dioxolan-2-yl]methyl}-4-[3-(dimethylcarbamoyl)phenyl]-6-ethylbenzene-1,3-diol]", "inhibition of the binding of biotinylated Radicicol to the Hsp90 protein": "at least 30%"},
      {"smiles": "CCc1c(O)cc(O)c(-c2cccc(OC)c2)c1CC(=O)OC", "note": "[Compound 142, Methyl 2-ethyl-3,5-dihydroxy-6-(3-methoxyphenyl)phenylacetate]", "inhibition of the binding of biotinylated Radicicol to the Hsp90 protein": "at least 30%"},
      {"smiles": "COC(=O)Cc1cc(O)cc(O)c1-c1cccc(OC)c1", "note": "[Compound 81, Methyl 3,5-dihydroxy-2-(3-methoxyphenyl)phenylacetate]", "inhibition of the binding of biotinylated Radicicol to the Hsp90 protein": "at least 30%"},
      {"smiles": "COC(=O)Cc1cc(O)cc(O)c1-c1ccc(OC)cc1", "note": "[Compound 82, Methyl 3,5-dihydroxy-2-(4-methoxyphenyl)phenylacetate]", "inhibition of the binding of biotinylated Radicicol to the Hsp90 protein": "at least 30%"},
      {"smiles": "CCc1c(O)cc(O)c(-c2cccc(OCc3cccnc3)c2)c1CCOCC(O)CO", "note": "(centres unmarked) [Compound 191, 5-[2-(2,3-Dihydroxypropoxy)ethyl]-6-ethyl-4-[3-(pyridin-3-ylmethyloxy)phenyl]benzene-1,3-diol]", "inhibition of the binding of biotinylated Radicicol to the Hsp90 protein": "at least 30%"},
      {"smiles": "CCc1c(O)cc(O)c(-c2ccccc2)c1CCN1CCC(O)C1", "note": "(centres unmarked) [Compound 321, 6-Ethyl-5-[2-(3-hydroxypyrrolidin-1-yl)ethyl]-4-phenylbenzene-1,3-diol]", "inhibition of the binding of biotinylated Radicicol to the Hsp90 protein": "at least 30%"},
      {"smiles": "N#Cc1ccccc1N1CCN(C(=O)Cc2c(Br)c(O)cc(O)c2-c2ccccc2)CC1", "note": "[Compound 38, 2-(2-Bromo-3,5-dihydroxy-6-phenylphenyl)-1-[4-(2-cyanophenyl)piperazin-1-yl]ethanone]", "inhibition of the binding of biotinylated Radicicol to the Hsp90 protein": "at least 30%"},
      {"smiles": "CCc1c(O)cc(O)c(-c2ccccc2)c1CCOCCCOC", "note": "[Compound 176, 6-Ethyl-5-[2-(3-methoxypropoxy)ethyl]-4-phenylbenzene-1,3-diol]", "inhibition of the binding of biotinylated Radicicol to the Hsp90 protein": "at least 30%"},
      {"smiles": "Oc1cc(O)c(-c2ccccc2)c(O)c1Br", "note": "[Compound 63, 4-Bromo-2-phenylbenzene-1,3,5-triol]", "inhibition of the binding of biotinylated Radicicol to the Hsp90 protein": "at least 30%"},
      {"smiles": "CCc1c(O)cc(O)c(-c2ccc(F)c(Cl)c2)c1CCOCCO", "note": "[Compound 312, 4-(3-Chloro-4-fluorophenyl)-6-ethyl-5-[2-(2-hydroxyethoxy)ethyl]benzene-1,3-diol]", "inhibition of the binding of biotinylated Radicicol to the Hsp90 protein": "at least 30%"},
      {"smiles": "COC(=O)Cc1cc(O)cc(O)c1-c1cccc(C=CC(=O)O)c1", "note": "[Compound 66, 3-{3-[2,4-dihydroxy-6-(methoxycarbonylmethyl)phenyl]phenyl}acrylic acid]", "inhibition of the binding of biotinylated Radicicol to the Hsp90 protein": "at least 30%"},
      {"smiles": "CCc1c(O)cc(O)c(-c2ncc(-c3ccccc3)o2)c1CC(=O)OC", "note": "[Compound 329, Methyl 2-ethyl-3,5-dihydroxy-6-(5-phenyl-1,3-oxazol-2-yl)phenylacetate]", "inhibition of the binding of biotinylated Radicicol to the Hsp90 protein": "at least 30%"},
      {"smiles": "CC(=O)CCc1c(Br)c(O)cc(O)c1-c1ccccc1", "note": "[Compound 114, 4-(2-Bromo-3,5-dihydroxy-6-phenylphenyl)butan-2-one]", "inhibition of the binding of biotinylated Radicicol to the Hsp90 protein": "at least 30%"},
      {"smiles": "CCc1c(O)cc(O)c(-c2cccc(N)c2)c1CCOCC(O)CO", "note": "(centres unmarked) [Compound 197, 4-(3-Aminophenyl)-5-[2-(2,3-dihydroxypropoxy)ethyl]-6-ethylbenzene-1,3-diol]", "inhibition of the binding of biotinylated Radicicol to the Hsp90 protein": "at least 30%"},
      {"smiles": "CCc1c(O)cc(O)c(-c2cccc(OC)c2)c1Cc1nn(CCO)c(=O)o1", "note": "[Compound 323, 5-{[2-Ethyl-3,5-dihydroxy-6-(3-methoxyphenyl)phenyl]methyl}-3-(2-hydroxyethyl)-3H-1,3,4-oxadiazol-2-one]", "inhibition of the binding of biotinylated Radicicol to the Hsp90 protein": "at least 30%"},
      {"smiles": "CCc1c(O)cc(O)c(-c2cccc(OCCN3CCCC3=O)c2)c1CCOCC(O)CO", "note": "(centres unmarked) [Compound 196, 5-[2-(2,3-Dihydroxypropoxy)ethyl]-6-ethyl-4-{3-[2-(2-oxopyrrolidin-1-yl)ethoxy]phenyl}benzene-1,3-diol]", "inhibition of the binding of biotinylated Radicicol to the Hsp90 protein": "at least 30%"},
      {"smiles": "COCCN(C)C(=O)Cc1c(C(C)=O)c(O)cc(O)c1-c1cccc(OC)c1", "note": "[Compound 141, 2-[2-Acetyl-3,5-dihydroxy-6-(3-methoxyphenyl)phenyl]-N-(2-methoxyethyl)-N-methylacetamide]", "inhibition of the binding of biotinylated Radicicol to the Hsp90 protein": "at least 30%"},
      {"smiles": "COC(=O)C=Cc1c(Br)c(O)cc(O)c1-c1ccccc1", "note": "[Compound 59, Methyl 3-(2-bromo-3,5-dihydroxy-6-phenylphenyl)acrylate]", "inhibition of the binding of biotinylated Radicicol to the Hsp90 protein": "at least 30%"},
      {"smiles": "COCCOCCc1c(C(C)=O)c(O)cc(O)c1-c1cccc(O)c1", "note": "[Compound 311, 1-{2,4-Dihydroxy-5-(3-hydroxyphenyl)-6-[2-(2-methoxyethoxy)ethyl]phenyl}ethanone]", "inhibition of the binding of biotinylated Radicicol to the Hsp90 protein": "at least 30%"},
      {"smiles": "CC(=O)c1c(O)cc(O)c(-c2ccccc2)c1CC1O[C@@H](CO)[C@H](CO)O1", "note": "[Compound 287, 6-Acetyl-5-{[(4S,5S)-4,5-bis(hydroxymethyl)-1,3-dioxolan-2-yl]methyl}-4-phenylbenzene-1,3-diol]", "inhibition of the binding of biotinylated Radicicol to the Hsp90 protein": "at least 30%"}
    ]}
  ]
}
